Values quoted from earlier work in patent US10653742B2, “Anti-inflammatory use of liquid phytocomplexes from olive” (FATTORIA LA VIALLA DI GIANNI, ANTONIO E BANDINO LO …, priority 2013, dated 2020).
At least one compound was matched to its structure with a doubt left.

Conditions: administered on its own; cited from earlier work

In the case of `C/C=C1/[C@H](O[C@@H]2O[C@H](CO)[C@@H](O)[C@H](O)[C@H]2O)OC=C(C(=O)OC)[C@H]1CC(=O)OCCc1ccc(O)c(O)c1` [oleuropein], the anti-microbial activity is listed as “anti-microbial activity”.
